Here are results for 27 compounds from the supplement of paper PMC4604168 (melanoma cell lines).

This is one part of the list. Single values are uncertain, as repeats are few or missing.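 Imaging used 1,536-well plates; nuclei positive for cleaved PARP by antibody were divided by total DNA-stained nuclei to yield the apoptosis fraction. Doses for screening kept most cells viable, and cell lines differ markedly in resting and induced cleaved-PARP levels.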

The subject of the assay is 501Mel. Kind of assay: cleaved PARP positive nuclei fraction relative to DMSO control; melanoma cells; higher = more apoptosis. The settings on record: library dose: low library concentration; 72 h.
As to `Cn1c(=O)n(-c2ccc(C(C)(C)C#N)cc2)c2c3cc(-c4cnc5ccccc5c4)ccc3ncc21` + CN1CCN(c2ccc3nc(-c4c(N)c5c(F)cccc5[nH]c4=O)[nH]c3c2)CC1 [Dovitinib] (first compound 0.004 µM, partner dose 0.1 µM), the “cleaved PARP positive nuclei fraction” value came to 117%.
Under `O=C(O)c1ccc2c(c1)nc(Nc1cccc(Cl)c1)c1ccncc12` + COc1ccc(Cl)c(Nc2nc3ccccc3nc2NS(=O)(=O)c2cccc(NC(=O)C(C)(C)N)c2)c1 [XL147] (first compound 0.4 µM, partner dose 0.8 µM) stands 104%.
With `CNC(=O)c1cc(Oc2ccc(NC(=O)Nc3ccc(Cl)c(C(F)(F)F)c3)cc2)ccn1` [sorafenib] + OCc1c[nH]c2ccccc12 [Indole-3-carbinol] (first compound 0.4 µM, partner dose 0.8 µM), the “cleaved PARP positive nuclei fraction” value was 81.7%.
As for `CO[C@H]1C[C@@H]2CC[C@@H](C)[C@@](O)(O2)C(=O)C(=O)N2CCCC[C@H]2C(=O)O[C@H]([C@H](C)C[C@@H]2CC[C@@H](OCCO)[C@H](OC)C2)CC(=O)[C@H](C)/C=C(\C)[C@@H](O)[C@@H](OC)C(=O)[C@H](C)C[C@H](C)/C=C/C=C/C=C/1C` [everolimus] + O=C(O)c1ccc2c(c1)nc(Nc1cccc(Cl)c1)c1ccncc12 [CX4945] (first compound 0.02 µM, partner dose 0.4 µM), the “cleaved PARP positive nuclei fraction” value was determined as 820%.
Under `Cn1c(=O)n(-c2ccc(C(C)(C)C#N)cc2)c2c3cc(-c4cnc5ccccc5c4)ccc3ncc21` + O=C(O)c1ccc2c(c1)nc(Nc1cccc(Cl)c1)c1ccncc12 [CX4945] (first compound 0.004 µM, partner dose 0.4 µM) stands 130%; under `CNC(=O)c1cc(Oc2ccc(NC(=O)Nc3ccc(Cl)c(C(F)(F)F)c3)cc2)ccn1` [sorafenib] + Cn1c(Nc2ccc(C(F)(F)F)cc2)nc2cc(Oc3ccnc(-c4ncc(C(F)(F)F)[nH]4)c3)ccc21 [CHIR265] (first compound 0.4 µM, partner dose 0.08 µM), 214%.
Under `Cc1cc(Nc2cc(N3CCN(C)CC3)nc(/C=C/c3ccccc3)n2)n[nH]1` + NC1(c2ccc(-c3nc4ccn5c(=O)[nH]nc5c4cc3-c3ccccc3)cc2)CCC1 [MK2206] (first compound 0.04 µM, partner dose 0.4 µM) stands 80.1%.
With `CC(C)C[C@H](NC(=O)[C@H](Cc1ccccc1)NC(=O)c1cnccn1)B(O)O` [Bortezomib] + CS(=O)(=O)CCNCc1ccc(-c2ccc3ncnc(Nc4ccc(OCc5cccc(F)c5)c(Cl)c4)c3c2)o1 [lapatinib] (first compound 0.001 µM, partner dose 0.8 µM), the “cleaved PARP positive nuclei fraction” value is 205%.
With `CO[C@H]1C[C@@H]2CC[C@@H](C)[C@@](O)(O2)C(=O)C(=O)N2CCCC[C@H]2C(=O)O[C@H]([C@H](C)C[C@@H]2CC[C@@H](OCCO)[C@H](OC)C2)CC(=O)[C@H](C)/C=C(\C)[C@@H](O)[C@@H](OC)C(=O)[C@H](C)C[C@H](C)/C=C/C=C/C=C/1C` [everolimus] + Cn1nnc2c(C(N)=O)ncn2c1=O [temozolomide] (first compound 0.02 µM, partner dose 2 µM), the “cleaved PARP positive nuclei fraction” value worked out at 215%.
Under `O=C(O)[C@@H]1[O][Sb](=[O])([O][Sb]2(=[O])[O][C@H]([C@H](O)CO)[C@H](O)[C@H](C(=O)O)[O]2)[O][C@H]([C@H](O)CO)[C@@H]1O` (some centres not stated) [stibogluconate] + C#Cc1cccc(Nc2ncnc3cc(OCCOC)c(OCCOC)cc23)c1 [erlotinib] (first compound 2 µM, partner dose 0.8 µM) stands 64.1%.
`C=C(c1ccc(C(=O)O)cc1)c1cc2c(cc1C)C(C)(C)CCC2(C)C` [Bexarotene] + Nc1nc(F)nc2c1ncn2[C@@H]1O[C@H](CO)[C@@H](O)[C@@H]1O [fludarabine] (first compound 2 µM, partner dose 0.2 µM): the “cleaved PARP positive nuclei fraction” value was 2530%.
On to `CNC(=O)c1cc(Oc2ccc(NC(=O)Nc3ccc(Cl)c(C(F)(F)F)c3)cc2)ccn1` [sorafenib] + C=CCNC1=C2C[C@@H](C)C[C@H](OC)[C@H](O)[C@@H](C)/C=C(\C)[C@H](OC(N)=O)[C@@H](OC)/C=C\C=C(/C)C(=O)NC(=CC1=O)C2=O [Tanespimycin] (first compound 0.4 µM, partner dose 0.002 µM), for which the “cleaved PARP positive nuclei fraction” value was 82.9%.
Regarding `Cn1c(=O)n(-c2ccc(C(C)(C)C#N)cc2)c2c3cc(-c4cnc5ccccc5c4)ccc3ncc21` + Nc1ncn([C@H]2C[C@H](O)[C@@H](CO)O2)c(=O)n1 [decitabine] (first compound 0.004 µM, partner dose 0.1 µM), the “cleaved PARP positive nuclei fraction” value amounted to 140%.
For the compound `CC(C)C[C@H](NC(=O)[C@H](Cc1ccccc1)NC(=O)c1cnccn1)B(O)O` [Bortezomib] + C=C(c1ccc(C(=O)O)cc1)c1cc2c(cc1C)C(C)(C)CCC2(C)C [Bexarotene] (first compound 0.001 µM, partner dose 2 µM), the “cleaved PARP positive nuclei fraction” value was 1180%.
In the case of `CCCS(=O)(=O)Nc1ccc(F)c(C(=O)c2c[nH]c3ncc(Cl)cc23)c1F` + COCC[n+]1c2c(n(Cc3cnccn3)c1C)C(=O)c1ccccc1C2=O [YM155] (first compound 0.08 µM, partner dose 0.0004 µM), the “cleaved PARP positive nuclei fraction” value came to 72.2%.
Take `CN1CCN(c2ccc3nc(-c4c(N)c5c(F)cccc5[nH]c4=O)[nH]c3c2)CC1` [Dovitinib] + Cn1c(Nc2ccc(C(F)(F)F)cc2)nc2cc(Oc3ccnc(-c4ncc(C(F)(F)F)[nH]4)c3)ccc21 [CHIR265] (first compound 0.1 µM, partner dose 0.08 µM): the “cleaved PARP positive nuclei fraction” value worked out at 86.7%.
On to `Cn1c(=O)n(-c2ccc(C(C)(C)C#N)cc2)c2c3cc(-c4cnc5ccccc5c4)ccc3ncc21` + Cn1nnc2c(C(N)=O)ncn2c1=O [temozolomide] (first compound 0.004 µM, partner dose 2 µM), for which the “cleaved PARP positive nuclei fraction” value turned out to be 136%.
As for `CC(C)C[C@H](NC(=O)[C@H](Cc1ccccc1)NC(=O)c1cnccn1)B(O)O` [Bortezomib] + C[C@@H](Oc1cc(-c2cnn(C3CCNCC3)c2)cnc1N)c1c(Cl)ccc(F)c1Cl [Crizotinib] (first compound 0.001 µM, partner dose 0.2 µM), the “cleaved PARP positive nuclei fraction” value was 414%.
Under `O=C(O)[C@@H]1[O][Sb](=[O])([O][Sb]2(=[O])[O][C@H]([C@H](O)CO)[C@H](O)[C@H](C(=O)O)[O]2)[O][C@H]([C@H](O)CO)[C@@H]1O` (some centres not stated) [stibogluconate] + OCc1c[nH]c2ccccc12 [Indole-3-carbinol] (first compound 2 µM, partner dose 0.8 µM) stands 221%; under `C=C(c1ccc(C(=O)O)cc1)c1cc2c(cc1C)C(C)(C)CCC2(C)C` [Bexarotene] + Cn1nnc2c(C(N)=O)ncn2c1=O [temozolomide] (first compound 2 µM, partner dose 2 µM), 115%.
Turning to `Nc1ncn([C@H]2C[C@H](O)[C@@H](CO)O2)c(=O)n1` [decitabine] + C[C@]1(c2nc3c(C(N)=O)cccc3[nH]2)CCCN1 [Veliparib] (first compound 0.1 µM, partner dose 1.4 µM), the “cleaved PARP positive nuclei fraction” value stood at 230%.
Turning to `CN1CCN(c2ccc3nc(-c4c(N)c5c(F)cccc5[nH]c4=O)[nH]c3c2)CC1` [Dovitinib] + Nc1nc(F)nc2c1ncn2[C@@H]1O[C@H](CO)[C@@H](O)[C@@H]1O [fludarabine] (first compound 0.1 µM, partner dose 0.2 µM), the “cleaved PARP positive nuclei fraction” value was 5020%.
In the case of `CO[C@H]1C[C@@H]2CC[C@@H](C)[C@@](O)(O2)C(=O)C(=O)N2CCCC[C@H]2C(=O)O[C@H]([C@H](C)C[C@@H]2CC[C@@H](OCCO)[C@H](OC)C2)CC(=O)[C@H](C)/C=C(\C)[C@@H](O)[C@@H](OC)C(=O)[C@H](C)C[C@H](C)/C=C/C=C/C=C/1C` [everolimus] + Clc1ccc(Nc2nnc(Cc3ccncc3)c3ccccc23)cc1 [vatalanib] (first compound 0.02 µM, partner dose 2 µM), the “cleaved PARP positive nuclei fraction” value was determined as 257%.
`CO[C@H]1C[C@@H]2CC[C@@H](C)[C@@](O)(O2)C(=O)C(=O)N2CCCC[C@H]2C(=O)O[C@H]([C@H](C)C[C@@H]2CC[C@@H](OCCO)[C@H](OC)C2)CC(=O)[C@H](C)/C=C(\C)[C@@H](O)[C@@H](OC)C(=O)[C@H](C)C[C@H](C)/C=C/C=C/C=C/1C` [everolimus] + C#Cc1cccc(Nc2ncnc3cc(OCCOC)c(OCCOC)cc23)c1 [erlotinib] (first compound 0.02 µM, partner dose 0.8 µM): the “cleaved PARP positive nuclei fraction” value is 2180%.
For `CS(=O)(=O)CCNCc1ccc(-c2ccc3ncnc(Nc4ccc(OCc5cccc(F)c5)c(Cl)c4)c3c2)o1` [lapatinib] + OCc1c[nH]c2ccccc12 [Indole-3-carbinol] (first compound 0.8 µM, partner dose 0.8 µM), the “cleaved PARP positive nuclei fraction” value came to 459%.
On to `C[C@@H](Oc1cc(-c2cnn(C3CCNCC3)c2)cnc1N)c1c(Cl)ccc(F)c1Cl` [Crizotinib] + Nc1ccn([C@@H]2O[C@H](CO)[C@@H](O)C2(F)F)c(=O)n1 [gemcitabine] (first compound 0.2 µM, partner dose 0.0004 µM), for which the “cleaved PARP positive nuclei fraction” value came out at 66.2%.
Turning to `O=C(O)[C@@H]1[O][Sb](=[O])([O][Sb]2(=[O])[O][C@H]([C@H](O)CO)[C@H](O)[C@H](C(=O)O)[O]2)[O][C@H]([C@H](O)CO)[C@@H]1O` (some centres not stated) [stibogluconate] + COc1ccc(Cl)c(Nc2nc3ccccc3nc2NS(=O)(=O)c2cccc(NC(=O)C(C)(C)N)c2)c1 [XL147] (first compound 2 µM, partner dose 0.8 µM), the “cleaved PARP positive nuclei fraction” value is 84.6%.
